These are yes or no findings as the source states them, for the method shown. A result given as binding can be weak or reduced; the word gives no strength. Sequences can lack the tags named with a protein.
Target: human CCR2 protein expressed in cells (transfected HEK293 cells; THP-1 cells) (human) (UniProt P41597)
Experiment: fluorescence microscopy of HEK cells (colocalization)

Protein sequences, listed by entry. Tags and fused reporters are not part of them. Lines headed by an entry give the natural chain unless they say otherwise; changes in a name come on top.
UniProt P41597: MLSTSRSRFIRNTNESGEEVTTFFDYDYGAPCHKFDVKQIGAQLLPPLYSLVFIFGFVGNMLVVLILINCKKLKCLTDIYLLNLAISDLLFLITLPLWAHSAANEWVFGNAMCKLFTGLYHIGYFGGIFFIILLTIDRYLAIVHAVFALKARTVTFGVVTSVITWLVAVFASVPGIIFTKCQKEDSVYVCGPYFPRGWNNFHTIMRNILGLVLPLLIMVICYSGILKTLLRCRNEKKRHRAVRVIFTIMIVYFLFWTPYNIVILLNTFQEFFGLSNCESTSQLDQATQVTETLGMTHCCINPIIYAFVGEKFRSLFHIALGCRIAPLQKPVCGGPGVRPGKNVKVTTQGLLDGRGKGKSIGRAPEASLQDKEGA

B1: green fluorescent protein-fused FROUNT protein 1 (pEGFP-FROUNT), expressed in HEK293 cells (protein, not shown: large carriers)
chain: MYFDWGPGEMLVCETSFNKKEKSEMVPSCPFIYIIRKDVDVYSQILRKLFNESHGIFLGLQRIDEELTGKSRKSQLVRVSKNYRSVIRACMEEMHQVAIAAKDPANGRQFSSQVSILSAMELIWNLCEILFIEVAPAGPLLLHLLDWVRLHVCEVDSLSADVLGSENPSKHDSFWNLVTILVLQGRLDEARQMLSKEADASPASAGICRIMGDLMRTMPILSPGNTQTLTELELKWQHWHEECERYLQDSTFATSPHLESLLKIMLGDEAALLEQKELLSNWYHFLVTRLLYSNPTVKPIDLHYYAQSSLDLFLGGESSPEPLDNILLAAFEFDIHQVIKECSIALSNWWFVAHLTDLLDHCKLLQSHNLYFGSNMREFLLLEYASGLFAHPSLWQLGVDYFDYCPELGRVSLELHIERIPLNTEQKALKVLRICEQRQMTEQVRSICKILAMKAVRNNRLGSALSWSIRAKDAAFATLVSDRFLRDYCERGCFSDLDLIDNLGPAMMLSDRLTFLGKYREFHRMYGEKRFADAASLLLSLMTSRIAPRSFWMTLLTDALPLLEQKQVIFSAEQTYELMRCLEDLTSRRPVHGESDTEQLQDDDIETTKVEMLRLSLARNLARAIIREGSLEGS
binding: binds

Reference: patent US20060008801A1 (EFFECTOR CELL INSTITUTE, published 2006)
